# Experimental data: the supplement of paper PMC10849652
# The chains behind the UniProt entries cited, without tags or fusion partners. Where a name states a change or a piece, a line headed by the entry shows the natural chain unless it says otherwise.
# UniProt Q8TET4: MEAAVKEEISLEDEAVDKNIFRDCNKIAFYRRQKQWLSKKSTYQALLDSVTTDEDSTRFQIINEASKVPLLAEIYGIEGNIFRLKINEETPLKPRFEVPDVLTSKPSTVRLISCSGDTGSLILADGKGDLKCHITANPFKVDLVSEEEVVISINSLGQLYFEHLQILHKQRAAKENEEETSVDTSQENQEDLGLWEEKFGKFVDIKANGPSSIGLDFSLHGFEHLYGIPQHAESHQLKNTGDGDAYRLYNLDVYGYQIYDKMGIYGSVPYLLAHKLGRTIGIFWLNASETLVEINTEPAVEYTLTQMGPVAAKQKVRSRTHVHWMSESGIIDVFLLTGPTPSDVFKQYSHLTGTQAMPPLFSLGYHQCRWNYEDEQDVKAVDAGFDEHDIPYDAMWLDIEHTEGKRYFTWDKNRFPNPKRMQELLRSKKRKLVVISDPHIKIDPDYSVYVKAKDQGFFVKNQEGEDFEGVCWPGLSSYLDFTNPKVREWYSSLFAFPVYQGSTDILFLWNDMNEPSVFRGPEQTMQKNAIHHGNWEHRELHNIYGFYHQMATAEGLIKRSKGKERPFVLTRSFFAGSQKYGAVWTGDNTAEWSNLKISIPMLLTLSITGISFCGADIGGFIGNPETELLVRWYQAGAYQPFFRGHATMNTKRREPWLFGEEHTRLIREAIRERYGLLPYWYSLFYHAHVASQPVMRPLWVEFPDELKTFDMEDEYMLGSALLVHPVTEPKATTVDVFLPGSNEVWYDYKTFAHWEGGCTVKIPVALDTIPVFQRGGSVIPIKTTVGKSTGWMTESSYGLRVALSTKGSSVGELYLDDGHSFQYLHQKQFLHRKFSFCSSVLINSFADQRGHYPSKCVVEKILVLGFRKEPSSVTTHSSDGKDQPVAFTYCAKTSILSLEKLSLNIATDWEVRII
# UniProt O94915: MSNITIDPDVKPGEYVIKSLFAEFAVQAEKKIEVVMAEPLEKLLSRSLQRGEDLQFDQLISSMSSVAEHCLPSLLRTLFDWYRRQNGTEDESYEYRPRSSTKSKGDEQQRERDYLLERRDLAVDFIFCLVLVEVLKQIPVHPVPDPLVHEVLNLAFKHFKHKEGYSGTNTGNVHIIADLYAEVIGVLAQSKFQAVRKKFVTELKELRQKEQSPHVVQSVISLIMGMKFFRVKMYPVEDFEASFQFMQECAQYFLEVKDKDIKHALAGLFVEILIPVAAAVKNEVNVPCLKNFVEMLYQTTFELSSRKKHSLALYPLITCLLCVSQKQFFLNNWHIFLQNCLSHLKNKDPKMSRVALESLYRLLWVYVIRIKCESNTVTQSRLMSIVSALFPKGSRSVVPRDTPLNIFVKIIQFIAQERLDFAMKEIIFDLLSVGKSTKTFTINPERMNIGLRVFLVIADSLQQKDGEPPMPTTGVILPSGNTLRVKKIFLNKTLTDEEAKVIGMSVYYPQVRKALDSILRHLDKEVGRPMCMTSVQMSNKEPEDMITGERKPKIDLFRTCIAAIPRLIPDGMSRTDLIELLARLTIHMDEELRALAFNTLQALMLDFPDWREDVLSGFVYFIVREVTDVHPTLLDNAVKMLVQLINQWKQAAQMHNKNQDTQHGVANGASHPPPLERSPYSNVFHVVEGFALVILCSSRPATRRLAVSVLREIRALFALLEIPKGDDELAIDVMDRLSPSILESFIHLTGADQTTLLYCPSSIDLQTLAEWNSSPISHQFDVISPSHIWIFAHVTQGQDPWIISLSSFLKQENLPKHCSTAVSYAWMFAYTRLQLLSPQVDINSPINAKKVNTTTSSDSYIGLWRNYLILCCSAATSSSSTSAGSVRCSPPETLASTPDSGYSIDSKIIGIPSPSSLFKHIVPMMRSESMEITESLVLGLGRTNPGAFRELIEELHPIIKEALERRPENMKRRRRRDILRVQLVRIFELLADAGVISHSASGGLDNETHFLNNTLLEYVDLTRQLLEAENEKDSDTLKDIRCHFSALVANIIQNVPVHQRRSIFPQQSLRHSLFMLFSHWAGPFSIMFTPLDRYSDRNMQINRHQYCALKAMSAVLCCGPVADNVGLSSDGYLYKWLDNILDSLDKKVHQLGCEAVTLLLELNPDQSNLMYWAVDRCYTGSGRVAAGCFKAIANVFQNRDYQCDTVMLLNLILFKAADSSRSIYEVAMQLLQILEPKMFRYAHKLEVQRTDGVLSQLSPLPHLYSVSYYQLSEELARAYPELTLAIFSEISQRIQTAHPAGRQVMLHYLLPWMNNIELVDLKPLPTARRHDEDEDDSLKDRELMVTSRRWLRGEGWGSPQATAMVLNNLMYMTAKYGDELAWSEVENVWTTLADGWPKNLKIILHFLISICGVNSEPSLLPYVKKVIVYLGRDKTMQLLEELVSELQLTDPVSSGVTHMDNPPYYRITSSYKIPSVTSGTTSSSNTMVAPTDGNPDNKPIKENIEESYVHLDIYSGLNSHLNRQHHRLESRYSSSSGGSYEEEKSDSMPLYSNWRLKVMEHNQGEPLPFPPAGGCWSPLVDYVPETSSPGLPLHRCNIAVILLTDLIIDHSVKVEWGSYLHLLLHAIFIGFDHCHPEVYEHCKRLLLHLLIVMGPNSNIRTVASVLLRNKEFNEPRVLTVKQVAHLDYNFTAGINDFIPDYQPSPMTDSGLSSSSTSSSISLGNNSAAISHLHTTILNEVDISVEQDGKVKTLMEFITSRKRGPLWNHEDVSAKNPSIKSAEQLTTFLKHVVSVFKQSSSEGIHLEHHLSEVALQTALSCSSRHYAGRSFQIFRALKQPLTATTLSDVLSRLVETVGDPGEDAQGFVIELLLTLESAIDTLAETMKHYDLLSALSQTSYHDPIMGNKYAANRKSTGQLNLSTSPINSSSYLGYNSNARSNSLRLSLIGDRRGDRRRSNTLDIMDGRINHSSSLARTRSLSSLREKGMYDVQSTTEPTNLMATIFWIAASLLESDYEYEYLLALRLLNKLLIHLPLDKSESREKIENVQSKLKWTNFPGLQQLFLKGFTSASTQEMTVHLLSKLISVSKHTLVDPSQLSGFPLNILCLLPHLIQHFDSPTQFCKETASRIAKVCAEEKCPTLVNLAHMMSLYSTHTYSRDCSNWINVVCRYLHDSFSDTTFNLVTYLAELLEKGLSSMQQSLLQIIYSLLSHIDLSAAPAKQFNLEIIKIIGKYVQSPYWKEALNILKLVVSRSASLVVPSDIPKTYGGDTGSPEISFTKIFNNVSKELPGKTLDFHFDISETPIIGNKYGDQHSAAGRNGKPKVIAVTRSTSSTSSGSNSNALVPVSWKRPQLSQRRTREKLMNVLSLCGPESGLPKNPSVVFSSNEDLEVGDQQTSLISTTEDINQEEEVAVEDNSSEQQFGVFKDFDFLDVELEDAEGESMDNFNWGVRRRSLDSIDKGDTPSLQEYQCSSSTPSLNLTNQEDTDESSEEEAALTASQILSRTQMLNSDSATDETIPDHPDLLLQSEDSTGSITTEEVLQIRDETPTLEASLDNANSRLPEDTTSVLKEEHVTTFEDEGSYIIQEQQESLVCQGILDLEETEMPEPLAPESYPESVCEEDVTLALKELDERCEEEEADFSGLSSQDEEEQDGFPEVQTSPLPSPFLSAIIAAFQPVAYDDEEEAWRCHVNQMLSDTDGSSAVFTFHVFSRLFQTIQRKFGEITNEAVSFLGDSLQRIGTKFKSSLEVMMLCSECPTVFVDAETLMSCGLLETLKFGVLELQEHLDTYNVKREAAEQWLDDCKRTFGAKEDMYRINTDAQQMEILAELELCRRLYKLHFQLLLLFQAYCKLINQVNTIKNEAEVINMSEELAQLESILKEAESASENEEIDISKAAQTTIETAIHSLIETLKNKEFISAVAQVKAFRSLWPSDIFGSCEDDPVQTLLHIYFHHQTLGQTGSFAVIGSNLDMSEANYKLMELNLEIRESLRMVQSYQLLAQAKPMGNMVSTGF
# UniProt Q9BZ67: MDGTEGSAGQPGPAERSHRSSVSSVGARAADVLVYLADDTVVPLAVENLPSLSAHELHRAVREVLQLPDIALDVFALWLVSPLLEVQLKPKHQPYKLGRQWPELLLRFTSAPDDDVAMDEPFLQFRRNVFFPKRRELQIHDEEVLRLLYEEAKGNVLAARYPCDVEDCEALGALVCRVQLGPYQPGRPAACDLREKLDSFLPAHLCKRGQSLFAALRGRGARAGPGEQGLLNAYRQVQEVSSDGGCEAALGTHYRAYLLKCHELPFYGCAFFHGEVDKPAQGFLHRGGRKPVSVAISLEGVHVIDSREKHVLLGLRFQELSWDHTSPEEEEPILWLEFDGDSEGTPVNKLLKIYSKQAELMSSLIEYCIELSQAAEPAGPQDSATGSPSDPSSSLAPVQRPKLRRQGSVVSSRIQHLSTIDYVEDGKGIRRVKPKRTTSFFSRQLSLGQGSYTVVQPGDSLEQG
# UniProt Q14435: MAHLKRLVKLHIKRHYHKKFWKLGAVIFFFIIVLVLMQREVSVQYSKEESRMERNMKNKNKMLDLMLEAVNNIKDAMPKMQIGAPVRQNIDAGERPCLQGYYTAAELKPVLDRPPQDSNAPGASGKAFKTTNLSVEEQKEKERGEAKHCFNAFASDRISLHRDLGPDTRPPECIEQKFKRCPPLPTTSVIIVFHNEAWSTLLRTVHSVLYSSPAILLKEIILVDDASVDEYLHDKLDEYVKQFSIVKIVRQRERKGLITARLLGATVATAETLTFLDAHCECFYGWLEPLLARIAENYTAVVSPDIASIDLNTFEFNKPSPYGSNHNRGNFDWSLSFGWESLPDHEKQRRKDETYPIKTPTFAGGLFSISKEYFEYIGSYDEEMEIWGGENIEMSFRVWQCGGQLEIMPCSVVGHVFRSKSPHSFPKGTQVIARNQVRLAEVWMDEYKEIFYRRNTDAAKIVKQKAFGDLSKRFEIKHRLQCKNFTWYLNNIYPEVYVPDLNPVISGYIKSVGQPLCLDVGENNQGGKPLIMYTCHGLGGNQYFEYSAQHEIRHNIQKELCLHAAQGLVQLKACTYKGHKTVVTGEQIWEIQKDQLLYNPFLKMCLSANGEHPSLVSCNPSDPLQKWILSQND
# UniProt Q9P0K8: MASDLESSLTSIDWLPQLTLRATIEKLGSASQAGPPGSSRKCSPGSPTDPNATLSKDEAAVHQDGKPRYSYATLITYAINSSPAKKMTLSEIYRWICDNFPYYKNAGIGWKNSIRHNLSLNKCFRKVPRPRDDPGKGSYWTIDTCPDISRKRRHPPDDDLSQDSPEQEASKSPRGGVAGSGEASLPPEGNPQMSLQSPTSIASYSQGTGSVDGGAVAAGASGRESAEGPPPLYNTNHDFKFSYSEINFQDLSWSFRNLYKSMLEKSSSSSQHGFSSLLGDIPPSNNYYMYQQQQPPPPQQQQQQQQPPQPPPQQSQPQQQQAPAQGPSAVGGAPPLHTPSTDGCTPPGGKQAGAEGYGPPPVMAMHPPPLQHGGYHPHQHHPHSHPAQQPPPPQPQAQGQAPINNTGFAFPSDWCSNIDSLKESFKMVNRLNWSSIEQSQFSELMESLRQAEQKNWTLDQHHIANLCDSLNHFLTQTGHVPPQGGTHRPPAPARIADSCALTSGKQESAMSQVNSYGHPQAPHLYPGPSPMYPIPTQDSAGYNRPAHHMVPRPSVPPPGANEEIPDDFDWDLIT
# UniProt P14136, whole entry, looked up: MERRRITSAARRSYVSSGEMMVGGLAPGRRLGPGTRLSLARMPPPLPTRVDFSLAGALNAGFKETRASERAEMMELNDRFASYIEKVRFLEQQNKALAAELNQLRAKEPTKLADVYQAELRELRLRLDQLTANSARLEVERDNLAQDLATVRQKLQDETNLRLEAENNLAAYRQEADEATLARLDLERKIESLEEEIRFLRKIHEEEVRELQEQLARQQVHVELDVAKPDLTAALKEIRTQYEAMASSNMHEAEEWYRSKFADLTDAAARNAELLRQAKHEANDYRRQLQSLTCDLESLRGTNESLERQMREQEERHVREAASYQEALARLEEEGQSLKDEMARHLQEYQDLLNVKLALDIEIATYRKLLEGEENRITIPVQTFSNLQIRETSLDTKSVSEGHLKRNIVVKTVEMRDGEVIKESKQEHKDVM
# UniProt P04406: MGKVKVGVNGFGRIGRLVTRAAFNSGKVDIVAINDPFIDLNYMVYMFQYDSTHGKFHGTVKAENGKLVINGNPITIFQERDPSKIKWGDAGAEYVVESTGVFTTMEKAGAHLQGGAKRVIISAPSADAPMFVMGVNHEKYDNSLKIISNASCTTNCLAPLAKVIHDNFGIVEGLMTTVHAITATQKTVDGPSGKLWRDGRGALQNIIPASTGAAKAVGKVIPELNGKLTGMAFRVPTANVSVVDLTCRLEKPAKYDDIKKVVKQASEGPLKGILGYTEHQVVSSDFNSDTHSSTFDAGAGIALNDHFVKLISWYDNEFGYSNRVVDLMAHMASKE
# UniProt Q8IVP5: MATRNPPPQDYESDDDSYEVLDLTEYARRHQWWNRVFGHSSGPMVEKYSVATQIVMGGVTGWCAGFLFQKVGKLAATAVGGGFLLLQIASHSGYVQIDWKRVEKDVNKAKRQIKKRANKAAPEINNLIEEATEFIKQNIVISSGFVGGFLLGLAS
# This is one part of the list.
# Legend:
# Experiment in all cases: log2 fold change, soluble protein after heating vs DMSO (PISA); higher = thermal stabilisation; K562 cells, 10 uM, 30 min; active = over 0.2 and 3.5 SD of the protein, either way, in both replicates (recomputed)
# gefitinib = compound: COc1cc2ncnc(Nc3ccc(F)c(Cl)c3)c2cc1OCCCN1CCOCC1 [gefitinib]
# How it was run: (§1)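 K562 cells at 2×10^6 cells/mL were treated with 10 μM compound for 30 min. Aliquots were heated for 3 min across 48°C-58°C, pooled, and extracted in PBS with 0.5% NP-40 at 4°C; soluble protein was the supernatant after 21,000xg for 90 min. Soluble protein was quantified by TMTpro 16plex LC-MS/MS with channel sums equalised, and reported as log2 fold change in thermal stability against DMSO controls, with values from duplicates.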
# zotarolimus = compound: CO[C@H]1C[C@@H]2CC[C@@H](C)[C@@](O)(O2)C(=O)C(=O)N2CCCC[C@H]2C(=O)O[C@H]([C@H](C)C[C@@H]2CC[C@H](n3cnnn3)[C@H](OC)C2)CC(=O)[C@H](C)/C=C(\C)[C@@H](O)[C@@H](OC)C(=O)[C@H](C)C[C@H](C)/C=C/C=C/C=C/1C [zotarolimus]
# How it was run: as §1
# idasanutlin = compound: COc1cc(C(=O)O)ccc1NC(=O)[C@@H]1N[C@@H](CC(C)(C)C)[C@](C#N)(c2ccc(Cl)cc2F)[C@H]1c1cccc(Cl)c1F [idasanutlin]
# How it was run: as §1
# [1] = compound: COc1cc2nc(-c3cc(F)ccc3O)nc(N[C@@H]3CNC[C@H]3C(C)(C)O)c2cc1OC
# How it was run: as §1
# lapatinib = compound: CS(=O)(=O)CCNCc1ccc(-c2ccc3ncnc(Nc4ccc(OCc5cccc(F)c5)c(Cl)c4)c3c2)o1 [lapatinib]
# How it was run: as §1
# filanesib = compound: CON(C)C(=O)N1N=C(c2cc(F)ccc2F)S[C@@]1(CCCN)c1ccccc1 [filanesib]
# How it was run: as §1
# alisertib = compound: COc1cc(Nc2ncc3c(n2)-c2ccc(Cl)cc2C(c2c(F)cccc2OC)=NC3)ccc1C(=O)O [alisertib]
# How it was run: as §1
# [2] = compound: COc1cccc2cc(-c3nc([C@H]4CC[C@H](C(=O)O)CC4)n4ncnc(N)c34)[nH]c12
# How it was run: as §1
# pictilisib = compound: CS(=O)(=O)N1CCN(Cc2cc3nc(-c4cccc5[nH]ncc45)nc(N4CCOCC4)c3s2)CC1 [pictilisib]
# How it was run: as §1
target,measurement,setting,value
GANC (UniProt Q8TET4),log2 fold change,gefitinib,inactive: -0.066
FRYL isoform 2 (UniProt O94915),log2 fold change,zotarolimus,inactive: 0.092
same,log2 fold change,idasanutlin,inactive: -0.023
same,log2 fold change,[1],inactive: -0.169
same,log2 fold change,lapatinib,inactive: 0.228
FRMD8 (UniProt Q9BZ67),log2 fold change,zotarolimus,inactive: -0.126
same,log2 fold change,idasanutlin,inactive: 0.154
same,log2 fold change,gefitinib,inactive: 0.075
FRY (UniProt Q5TBA9),log2 fold change,filanesib,inactive: 0.072
same,log2 fold change,idasanutlin,inactive: -0.109
same,log2 fold change,alisertib,inactive: 0.158
same,log2 fold change,[2],inactive: -0.106
same,log2 fold change,pictilisib,inactive: 0.258
GALNT3 (UniProt Q14435),log2 fold change,pictilisib,inactive: -0.129
FOXJ2 (UniProt Q9P0K8),log2 fold change,zotarolimus,inactive: -0.179
GFAP isoform 2 (UniProt P14136),log2 fold change,alisertib,inactive: 0.395
same,log2 fold change,[2],inactive: 0.281
same,log2 fold change,pictilisib,inactive: 0.133
GAPDH isoform 2 (UniProt P04406),log2 fold change,alisertib,inactive: 0.054
same,log2 fold change,[2],inactive: 0.167
FUT10 isoform 2 (UniProt Q6P4F1),log2 fold change,pictilisib,inactive: -0.044
FUT1 (UniProt P19526),log2 fold change,filanesib,inactive: 0.008
G6PC3 (UniProt Q9BUM1),log2 fold change,alisertib,inactive: -0.182
same,log2 fold change,[1],inactive: 0.012
same,log2 fold change,gefitinib,inactive: 0.125
same,log2 fold change,[2],inactive: -0.116
same,log2 fold change,lapatinib,inactive: 0.076
FUNDC1 (UniProt Q8IVP5),log2 fold change,filanesib,inactive: -0.193
same,log2 fold change,alisertib,inactive: 0.011
same,log2 fold change,[1],inactive: -0.138
same,log2 fold change,[2],inactive: 0.172
same,log2 fold change,lapatinib,inactive: 0.101
GAS6 isoform 1 (UniProt Q14393),log2 fold change,filanesib,inactive: 0.147
same,log2 fold change,pictilisib,inactive: 0.02
FRMPD3 (UniProt Q5JV73),log2 fold change,zotarolimus,inactive: -0.293

# Two entries from above in another layout.
target	measurement	setting	value
FRYL isoform 2 (UniProt O94915)	log2 fold change	[1]	inactive: -0.169
same	log2 fold change	lapatinib	inactive: 0.228
